# Data from PubChem BioAssay AID540276 (National Center for Advancing Translational Sciences (NCATS), 2011).
# The campaign covered roughly 300,000 compounds. About 5,400 (1.8%) were called active. This list was built around the results that the source calls inconclusive (neither active nor inactive); the mix of calls is not that of the screen. Calls come from the whole dose curve; tested in HEK293 cells. Potencies beside an inconclusive call are fits to weak or partial responses and may not hold up.
# Test: qHTS for inhibitors of binding or entry into cells for Marburg Virus
# Conditions: Marburg virus pseudotyped entry inhibition, cell reporter; activity change, negative = inhibition: at 37.8 µM (top of the series) unless noted
# % is set by controls: 0 for no effect and ±100 for the full control effect; potency is the fitted concentration of half-maximal effect.
Compound,Potency,"activity change, negative = inhibition"
COc1cc2ccccc2cc1C(=O)NC1CCCC1,"inconclusive: 0.0891 µM [inhibitor, full curve, poor fit]",–
Cc1cccc(NC(=O)c2sc3nc4c(cc3c2N)CN(C(C)C)CC4)c1,–,inactive: -11% [at 46.1 µM]
CCOC(=O)/C(C#N)=C/c1cccn1-c1ccc(Cl)cc1,"inconclusive: 3.16 µM [inhibitor, partial curve, poor fit]",–
O=C(Nc1cccc(Cl)c1Cl)c1snnc1-c1ccccc1,"inconclusive: 1.78 µM [inhibitor, partial curve, poor fit]",–
Cc1ccc(S(=O)(=O)N(C)C)cc1-n1c(SCC(=O)Nc2ccc(F)c(F)c2F)nc2ccccc2c1=O,"inconclusive: 3.55 µM [activator, single point]",–
O=C1/C(=C\c2ccco2)SC(=S)N1c1ccccc1,"inconclusive: 6.51 µM [activator, single point]",–
COc1ccc(Cl)cc1CN1C(=O)NC2(CCCCCC2)C1=O,–,inactive: -9.2% [at 46.1 µM]
CNC(=O)c1nc(C)n(-c2cc(Cl)ccc2Cl)n1,–,inactive: 1.19%
CCc1cc(=S)n2c([nH]c3ccccc32)c1C#N,"inconclusive: 3.16 µM [inhibitor, full curve, poor fit]",–
CCc1ccc(N(C(=O)c2csnn2)C(C(=O)NCc2ccccc2)c2ccco2)cc1 (stereo unspecified),"inconclusive: 10.3 µM [inhibitor, single point]",–
CC1Cc2ccccc2N1C(=O)CSc1nc2c(c(=O)n(C)c(=O)n2C)n1Cc1ccccc1 (stereo unspecified),"inconclusive: 13 µM [inhibitor, partial curve]",–
O=C(CS(=O)c1ccc(C(F)(F)F)cc1[N+](=O)[O-])Oc1ccc(Cl)cc1 (stereo unspecified),"inconclusive: 11.6 µM [inhibitor, single point]",–
O=C(Nc1cccc2ccccc12)/C(=C/c1ccc([N+](=O)[O-])cc1)NC(=O)c1ccccc1,–,inactive: -4.3%
CCCCSCCCNC(=O)c1cn(C)c2ccc(S(=O)(=O)N3CCCCCC3)cc2c1=O,–,inactive: 10.4% [at 46.1 µM]
CNC(=O)C(=O)Nc1nc(C23CC4CC(CC(C4)C2)C3)cs1,–,inactive: 20.5% [at 46.1 µM]
O=C1c2ccccc2C(=O)N1CC1=NCCc2ccccc21,"inconclusive: 11.6 µM [activator, partial curve]",–
CC(C)CCn1nnc2sc(-c3ccccc3)cc2c1=O,"inconclusive: 3.16 µM [activator, single point]",–
O=C1c2cccc(NCCNCCO)c2C(=O)c2cccc(NCCNCCO)c21,active: 5.01 µM,–
COc1cc(NC(=O)CSc2nccn2C)cc(OC)c1OC,–,inactive: -11.5% [at 46.1 µM]
Cc1cc(N)n(-c2nc(-c3cccnc3)nc3ccccc23)n1,"inconclusive: 35.5 µM [inhibitor, single point]",–
CCOC(=O)c1cccc2c1-c1ccccc1/C2=N/O,–,inactive: -0.0389%
COc1ccc(-n2nnnc2/C(=C/N(C)C)C(=O)c2ccccc2)cc1,"inconclusive: 0.112 µM [inhibitor, full curve, poor fit]",–
CC(C)Oc1cccc(C2CC(=O)Nc3cc4c(cc32)OCO4)c1 (stereo unspecified),"inconclusive: 0.891 µM [inhibitor, full curve, poor fit]",–

# 13 entries already listed, arranged by molecular weight, falling.
Compound,Potency,"activity change, negative = inhibition"
Cc1ccc(S(=O)(=O)N(C)C)cc1-n1c(SCC(=O)Nc2ccc(F)c(F)c2F)nc2ccccc2c1=O,"inconclusive: 3.55 µM [activator, single point]",–
CC1Cc2ccccc2N1C(=O)CSc1nc2c(c(=O)n(C)c(=O)n2C)n1Cc1ccccc1 (stereo unspecified),"inconclusive: 13 µM [inhibitor, partial curve]",–
CCc1ccc(N(C(=O)c2csnn2)C(C(=O)NCc2ccccc2)c2ccco2)cc1 (stereo unspecified),"inconclusive: 10.3 µM [inhibitor, single point]",–
O=C(CS(=O)c1ccc(C(F)(F)F)cc1[N+](=O)[O-])Oc1ccc(Cl)cc1 (stereo unspecified),"inconclusive: 11.6 µM [inhibitor, single point]",–
Cc1cccc(NC(=O)c2sc3nc4c(cc3c2N)CN(C(C)C)CC4)c1,–,inactive: -11% [at 46.1 µM]
COc1ccc(-n2nnnc2/C(=C/N(C)C)C(=O)c2ccccc2)cc1,"inconclusive: 0.112 µM [inhibitor, full curve, poor fit]",–
CNC(=O)C(=O)Nc1nc(C23CC4CC(CC(C4)C2)C3)cs1,–,inactive: 20.5% [at 46.1 µM]
Cc1cc(N)n(-c2nc(-c3cccnc3)nc3ccccc23)n1,"inconclusive: 35.5 µM [inhibitor, single point]",–
CC(C)CCn1nnc2sc(-c3ccccc3)cc2c1=O,"inconclusive: 3.16 µM [activator, single point]",–
O=C1/C(=C\c2ccco2)SC(=S)N1c1ccccc1,"inconclusive: 6.51 µM [activator, single point]",–
CNC(=O)c1nc(C)n(-c2cc(Cl)ccc2Cl)n1,–,inactive: 1.19%
COc1cc2ccccc2cc1C(=O)NC1CCCC1,"inconclusive: 0.0891 µM [inhibitor, full curve, poor fit]",–
CCOC(=O)c1cccc2c1-c1ccccc1/C2=N/O,–,inactive: -0.0389%

# Next part:

Compound,Potency,"activity change, negative = inhibition"
O=C(CCn1cnnn1)Nc1cc(C(F)(F)F)cc(C(F)(F)F)c1,–,inactive: -26.6% [at 46.1 µM]
Cc1ccc(NS(=O)(=O)c2cc(NC(=O)c3cc4c(s3)CCCC4)ccc2C)c(C)c1,"inconclusive: 15.8 µM [inhibitor, partial curve]",–
Nc1c(C(=O)Nc2ccc3c(c2)OCCO3)nnn1CCc1ccccc1,–,inactive: -1.53%
CCc1nc(SCC(=O)N2CCN(c3ccccc3)CC2)c2oc3ccccc3c2n1,"inconclusive: 23.1 µM [inhibitor, single point]",–
Cc1[nH]c2ccc3ncccc3c2c1C,–,inactive: 11.2%
O=C(/C=C/c1ccccc1)N/C(=C/c1ccccc1)C(=O)NCCO,"inconclusive: 20.6 µM [activator, single point]",–
O=C(NCc1cccc(Cl)c1)C1CCCO1 (stereo unspecified),"inconclusive: 0.794 µM [inhibitor, single point]",–
O=C(Nc1ccccc1)Nc1snnc1C(=O)Nc1cccc(O)c1,"inconclusive: 35.5 µM [inhibitor, single point]",–
Cc1c(C(=O)NC2CCCc3ccccc32)oc2ccccc12 (stereo unspecified),"inconclusive: 35.5 µM [inhibitor, single point]",–
Nc1ccc(-c2nnc(-c3ccccc3)o2)cc1,"inconclusive: 35.5 µM [inhibitor, single point]",–
COc1ccccc1C1=NN(C(=S)Nc2ccccc2)C(c2ccco2)C1 (stereo unspecified),"inconclusive: 35.5 µM [inhibitor, single point]",–
O=C(C1CCN(S(=O)(=O)c2cccc3nonc23)CC1)N1CCCCC1,–,inactive: -15.9% [at 46.1 µM]
CCc1ccccc1NC(=O)C1CCN(c2cnccn2)CC1,"inconclusive: 5.62 µM [inhibitor, single point]",–
CC(=O)c1nn(-c2cccc(Br)c2)cc1C(=O)c1ccccc1,"inconclusive: 25.9 µM [inhibitor, single point]",–
O=C(Cc1ccc(Cl)c(Cl)c1)Nc1cccc(S(=O)(=O)N2CCOCC2)c1,"inconclusive: 8.91 µM [inhibitor, partial curve, poor fit]",–
O=C(N/C(=C/c1ccccc1)C(=O)N1CCCCC1)c1ccc(Br)o1,–,inactive: -3.27%
CN1CCN(C=NC2=NN(c3cccc(C(F)(F)F)c3)CC2)CC1,–,inactive: -26%
CC(=O)c1cc2c(cc1NC(=O)C1CC1)OCO2,–,inactive: 0%
CCC(C)Nc1nc2c(c(=O)[nH]c(=O)n2C)n1CCC(C)C (stereo unspecified),–,inactive: -0.601%
COc1ccc(OC)c(C2C3=C(CCCC3=O)Nc3nnnn32)c1 (stereo unspecified),"inconclusive: 1.26 µM [activator, single point]",–
CN=c1oc2ccc(Cl)cc2cc1C(N)=O,"inconclusive: 3.55 µM [inhibitor, full curve, poor fit]",–
Cc1csc(NC(=O)CSc2nnc(-c3ccccn3)n2-c2ccc(C)c(C)c2)n1,"inconclusive: 11.2 µM [inhibitor, single point]",–
Nc1nc(-c2ccccn2)nc(N)c1Cc1c(F)cccc1Cl,"inconclusive: 35.5 µM [inhibitor, single point]",–
